The test has as its system P388 leukemia ip, CD2F1 mice, survival T/C. Briefly: NCI In Vivo Anticancer Drug Screen. Data for tumor model P388 Leukemia (intraperitoneal) in CD2F1 (CDF1) mice. The settings on record: T/C endpoint: median survival time, higher T/C = longer survival.
Setting [1] is: dose: 200.0 mg/kg/injection, schedule: Q01DX005 (ip), vehicle: saline with Tween-80.
[2] abbreviates: dose: 200.0 mg/kg/injection, schedule: Q01DX005 (ip), vehicle: Klucel (hydroxypropylcellulose) (HPC).
Setting [3] is: dose: 0.06 mg/kg/injection, schedule: Q01DX009 (ip), vehicle: water.
Where [4] appears, read: dose: 0.12 mg/kg/injection, schedule: Q01DX009 (ip), vehicle: water.
Setting [5] is: dose: 50.0 mg/kg/injection, schedule: Q01DX009 (ip), vehicle: saline with Tween-80.

The list does not hold the whole screen: it gathers tests that were run many times, whatever their T/C, doses with no T/C, and many T/C values between a quarter and a half above the control. Further doses and runs are listed elsewhere. T/C is the treated group as % of the vehicle group. Some entries give survivors of the animals treated and no T/C: the source files T/C as zero there, which appears to mark a toxic dose or a test without result, not a measured value. Some survivor counts are full or nearly so, which does not show that the dose was tolerated: survival well below the control is almost never listed, so the zero probably covers shortened survival too. Counts of survivors are from the toxicity check (mostly the fifth day) where no day follows; animals may have died later. Schedule codes are those of the source, read here as Q, the interval in days (D) or hours (H), X, the number of doses. Some entries were tested several times; the values are given in rising order. For survival time, the PubChem record calls one and a half times the control and up active, and a quarter to a half above the control has no call in these data; cut-offs in other NCI protocols can differ.

For the compound `C/C(=N\NC(=S)NCc1ccccc1)c1nccnc1C`, the T/C (dose: 12.5 mg/kg/injection, schedule: Q01DX005 (ip), vehicle: saline with Tween-80) was 130 and 136 % of control. Further, the survivor count was 4 of 6 and 5 of 6 (dose: 25.0 mg/kg/injection, schedule: Q01DX005 (ip), vehicle: saline with Tween-80); 2 of 6 (dose: 50.0 mg/kg/injection, schedule: Q01DX005 (ip), vehicle: saline with Tween-80); 0 of 6 (dose: 100.0 mg/kg/injection, schedule: Q01DX005 (ip), vehicle: saline with Tween-80); 0 of 6 under setting [1].

`O=C(Nc1ccc(CCc2ccc(NC(=O)C34CC5CC(CC(C5)C3)C4)cc2)cc1)C12CC3CC(CC(C3)C1)C2`: the survivor count under setting [1] is 6 of 6.

For `CC(C)C(C(=O)CCN(C)C)c1ccc(Cl)cc1` (stereo not drawn), the survivor count under setting [1] is 1 of 5.

`COc1ccc(Cl)c2c(N=Nc3ccccc3[N+](=O)[O-])c(O)[nH]c12`: the survivor count by setting is: (dose: 60.0 mg/kg/injection, schedule: Q01DX005 (ip), vehicle: saline with Tween-80) 6 of 6; (dose: 120.0 mg/kg/injection, schedule: Q01DX005 (ip), vehicle: saline with Tween-80) 6 of 6.

On to `CCOc1cccc(/C=N/NC(=O)C(=O)Nc2cccc(C(F)(F)F)c2)c1O`, for which the survivor count runs as follows: (dose: 100.0 mg/kg/injection, schedule: Q01DX005 (ip), vehicle: Klucel (hydroxypropylcellulose) (HPC)) 6 of 6; under setting [2], 6 of 6.

In the case of `C=C1COC(O)(C2OCOC(C3CC(=O)NC(=O)C3)C2O)C1C` (stereo not drawn), the survivor count was 6 of 6 (dose: 0.03 mg/kg/injection, schedule: Q01DX009 (ip), vehicle: water); 1 of 6 under setting [3]; 0 of 6 under setting [4]; 0 of 6 (dose: 0.84 micrograms/kg/injection, schedule: Q01DX009 (ip), vehicle: water); 0 of 6 (dose: 1.68 micrograms/kg/injection, schedule: Q01DX009 (ip), vehicle: water); 0 of 6 (dose: 3.37 micrograms/kg/injection, schedule: Q01DX009 (ip), vehicle: water). In addition, the survivor count (dose: 7.5 micrograms/kg/injection, schedule: Q01DX009 (ip), vehicle: water) is recorded as 4 of 6. The T/C runs as follows: under setting [3], 132 % of control; under setting [4], 142 % of control; (dose: 8.0 micrograms/kg/injection, schedule: Q01DX009 (ip), vehicle: water) 140 % of control; (dose: 16.0 micrograms/kg/injection, schedule: Q01DX009 (ip), vehicle: water) 149 % of control.

In the case of `O=C(N/C(=C/c1ccc(Cl)cc1Cl)c1nc2ccccc2s1)c1ccccc1`, the survivor count under setting [1] is 2 of 6.

For the compound `N=c1c2c(ncn1Cc1ccccc1)CCN(Cc1ccccc1)C2`, under setting [5], the survivor count is on record as 3 of 6.

As for `Cc1cccc(Nc2nc(C)nc3[nH]cc(C)c23)c1`, the survivor count under setting [2] is given as 1 of 6.

For `CN(C)c1ncnc2c1ncn2CCn1cnc2c(N(C)C)ncnc21`, the survivor count under setting [2] was 0 of 6.

Consider `O=C1NC(O)c2cc(F)ccc2O1` (stereo not drawn), for which the T/C under setting [1] is 127 % of control. For the same compound, for the setting “dose: 400.0 mg/kg/injection, schedule: Q01DX005 (ip), vehicle: saline with Tween-80”, the survivor count is listed as 0 of 5.

In the case of `Nc1ncc2c(n1)Oc1cc3nc4c(=O)nc(N)nc-4oc3cc1N2`, under setting [2], the survivor count is listed as 2 of 5.

Consider `CCOC1N(c2ccc(Cl)cc2)CN(C)CC1(C)C` (stereo not drawn), for which, where the note is “dose: 200.0 mg/kg/injection, schedule: Q01DX009 (ip), vehicle: saline with Tween-80”, the T/C was 126 % of control.

In the case of `CC(C(=O)NC(=O)O)S(=O)(=O)O` (stereo not drawn), the survivor count by setting is: (dose: 50.0 mg/kg/injection, schedule: Q01DX001 (ip), vehicle: saline with Tween-80) 3 of 6; (dose: 100.0 mg/kg/injection, schedule: Q01DX001 (ip), vehicle: saline with Tween-80) 1 of 6; (dose: 200.0 mg/kg/injection, schedule: Q01DX001 (ip), vehicle: saline with Tween-80) 0 of 6; (dose: 400.0 mg/kg/injection, schedule: Q01DX001 (ip), vehicle: saline with Tween-80) 0 of 6.

`[Se]=P(N1CC1)(N1CC1)N1CC1`: the survivor count (dose: 55.0 mg/kg/injection, schedule: Q01DX001 (ip), vehicle: Klucel (hydroxypropylcellulose) (HPC)) is recorded as 0 of 6.

Regarding `O=C(O)C(S)c1ccc2ccccc2c1` (stereo not drawn), for the setting “dose: 400.0 mg/kg/injection, schedule: Q01DX009 (ip), vehicle: Klucel (hydroxypropylcellulose) (HPC)”, the survivor count is reported as 4 of 6.

With `Cc1ccc2c(Nc3ccc(NS(C)(=O)=O)cc3C)c3ccccc3nc2c1`, the T/C reads like this: (dose: 3.12 mg/kg/injection, schedule: Q01DX009 (ip), vehicle: saline) 131 % of control; (dose: 6.25 mg/kg/injection, schedule: Q01DX009 (ip), vehicle: saline) 134 and 147 % of control. The survivor count is reported as 6 of 6 (dose: 50.0 mg/kg/injection, schedule: Q01DX009 (ip), vehicle: saline); 5 of 6 (dose: 100.0 mg/kg/injection, schedule: Q01DX009 (ip), vehicle: saline); 2 of 6 (dose: 200.0 mg/kg/injection, schedule: Q01DX009 (ip), vehicle: saline).

For `CC1(C)CC(C)(C)c2c1oc(=O)c1c3c(oc(=O)c21)C(C)(C)CC3(C)C`, the survivor count by setting is: (dose: 12.5 mg/kg/injection, schedule: Q01DX005 (ip), vehicle: Klucel (hydroxypropylcellulose) (HPC)) 6 of 6; (dose: 50.0 mg/kg/injection, schedule: Q01DX005 (ip), vehicle: Klucel (hydroxypropylcellulose) (HPC)) 5 of 5 and 6 of 6; under setting [2], 5 of 5.

For `O=C(OCC1C=C(OC(=O)c2ccccc2)C(=O)C(OC(=O)c2ccccc2)O1)c1ccccc1` (stereo not drawn), the survivor count under setting [5] is 6 of 6.

In the case of `COc1ccc2cc(-c3ccccc3)[s+]cc2c1`, the survivor count runs as follows: (dose: 12.5 mg/kg/injection, schedule: Q01DX009 (ip), vehicle: DMSO) 5 of 5; (dose: 25.0 mg/kg/injection, schedule: Q01DX009 (ip), vehicle: DMSO) 6 of 6; (dose: 50.0 mg/kg/injection, schedule: Q01DX009 (ip), vehicle: DMSO) 6 of 6; (dose: 100.0 mg/kg/injection, schedule: Q01DX009 (ip), vehicle: DMSO) 5 of 5; (dose: 200.0 mg/kg/injection, schedule: Q01DX009 (ip), vehicle: DMSO) 2 of 5; (dose: 400.0 mg/kg/injection, schedule: Q01DX009 (ip), vehicle: DMSO) 1 of 5.

Regarding `CCC1(CC)CCC(C#N)C1=N` (stereo not drawn), the survivor count is listed as 0 of 6 (dose: 100.0 mg/kg/injection, schedule: Q01DX001 (ip), vehicle: Klucel (hydroxypropylcellulose) (HPC)); 0 of 6 (dose: 200.0 mg/kg/injection, schedule: Q01DX001 (ip), vehicle: Klucel (hydroxypropylcellulose) (HPC)); 1 of 6 (dose: 400.0 mg/kg/injection, schedule: Q01DX001 (ip), vehicle: Klucel (hydroxypropylcellulose) (HPC)).

Turning to `Cc1ccc(S(=O)(=O)OCCN(CCOS(=O)(=O)c2ccc(C)cc2)c2ccc(C=O)cc2)cc1`, the T/C is 127 % of control (dose: 3.13 mg/kg/injection, schedule: Q04DX003 (ip), vehicle: saline with Tween-80); 131 % of control (dose: 6.25 mg/kg/injection, schedule: Q04DX003 (ip), vehicle: saline with Tween-80); 145 % of control (dose: 50.0 mg/kg/injection, schedule: Q04DX003 (ip), vehicle: saline with Tween-80); 136 % of control (dose: 100.0 mg/kg/injection, schedule: Q01DX009 (ip), vehicle: saline with Tween-80); 125 % of control (dose: 400.0 mg/kg/injection, schedule: Q04DX003 (ip), vehicle: saline with Tween-80). In addition, the survivor count (dose: 400.0 mg/kg/injection, schedule: Q01DX009 (ip), vehicle: saline with Tween-80) is given as 6 of 6.

Turning to `CC(=O)NCCc1nc(-c2nc(C(=O)O)cs2)cs1`, under “dose: 200.0 mg/kg/injection, schedule: Q01DX009 (ip), vehicle: distilled water + Tween-80”, the survivor count is on record as 6 of 6.

On to `Nc1ccncc1N`, for which the survivor count is, setting by setting: (dose: 25.0 mg/kg/injection, schedule: Q01DX009 (ip), vehicle: saline) 0 of 6; (dose: 40.0 mg/kg/injection, schedule: Q01DX009 (ip), vehicle: saline) 0 of 6.

(Values after PubChem BioAssay AID330 (DTP/NCI, 2004).)
